# According to the supplement of paper PMC3334620:
# The full ranking holds about 33,000 sequences; the median of “E-score (-0.5 to 0.5)” is about -0.016, and the highest 2% start at about 0.3. The list shows a part of the results.
# Biological target: T1, Yer184c (UniProt P39961)
# T1 sequence: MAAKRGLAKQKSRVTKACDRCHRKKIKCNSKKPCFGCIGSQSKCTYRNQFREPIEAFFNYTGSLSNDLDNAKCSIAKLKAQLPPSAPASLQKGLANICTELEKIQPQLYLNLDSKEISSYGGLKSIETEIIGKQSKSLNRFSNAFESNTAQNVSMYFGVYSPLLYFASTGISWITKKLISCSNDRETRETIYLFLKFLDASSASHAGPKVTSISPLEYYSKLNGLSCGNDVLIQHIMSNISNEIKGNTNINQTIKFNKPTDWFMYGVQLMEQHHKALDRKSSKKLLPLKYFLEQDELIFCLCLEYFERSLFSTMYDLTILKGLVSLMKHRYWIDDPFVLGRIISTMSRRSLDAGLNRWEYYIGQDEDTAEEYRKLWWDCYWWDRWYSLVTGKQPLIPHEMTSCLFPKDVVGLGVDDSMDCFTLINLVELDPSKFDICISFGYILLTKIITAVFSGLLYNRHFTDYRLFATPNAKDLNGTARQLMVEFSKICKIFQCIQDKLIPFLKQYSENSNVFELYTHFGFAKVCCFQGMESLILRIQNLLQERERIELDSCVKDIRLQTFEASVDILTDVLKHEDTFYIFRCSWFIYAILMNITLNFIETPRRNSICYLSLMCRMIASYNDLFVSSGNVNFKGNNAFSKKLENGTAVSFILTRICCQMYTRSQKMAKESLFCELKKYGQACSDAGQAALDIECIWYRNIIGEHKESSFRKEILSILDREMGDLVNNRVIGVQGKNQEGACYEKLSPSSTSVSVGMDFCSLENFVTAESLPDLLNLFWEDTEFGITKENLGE
# Test: PBM E-score (8-mer binding enrichment) (E-score (-0.5 to 0.5)); higher = stronger / more preferred TF binding
# Details: protein concentration: 100 nM; construct: GST-full length
# Summary of the method: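 Universal all-10-mer Agilent arrays, fresh or stripped once, were converted to double-stranded form by primer extension. GST-tagged yeast transcription factors from PURExpress in vitro transcription/translation, full-length or DNA-binding domain only, were applied at about 100-200 nM and detected with fluorescent anti-GST. After masliner normalisation, the Universal PBM Analysis Suite scored each ungapped eight-base word together with its reverse complement by E-score.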
row,Sequence,PBM E-score
1,ATGAATTC,0.158
2,CAATCACA,-0.0229
3,ATCATAGG,0.0557
4,CACTTTCC,0.021
5,ACCCGAAG,0.0247
6,GCGTTAGC,-0.0452
7,CGGGGTTA,0.133
8,GGTTGCGA,0.108
9,AAGTTGCG,-0.029
10,ATAGCAAT,0.146
11,AATGTTGC,0.0568
12,CAGGCACG,-0.157
13,CCCGCTCC,-0.239
14,AGATTGGC,-0.0896
15,AAGGCCGC,0.051
16,AGAGCAGG,-0.0954
17,TATCGAGA,0.0597
18,CCCAGGGG,-0.241
19,ACAAGACT,-0.0529
20,GGTAGCCA,-0.146
21,AATCATAT,0.109
22,CTGTGTAA,0.15
23,TAGGGAAA,-0.199
24,CAGGATAC,-0.116
25,CTTTCATA,0.0871

row,Sequence,PBM E-score
1,AAGCCTCC,-0.136
2,GTGACAAC,0.0577
3,GCTAGAGA,-0.0348
4,AAAATAGG,0.129
5,CCGGCGCC,0.354
6,GAGATGAA,0.0633
7,CGACTCTC,-0.0925
8,GAAAGACC,-0.0964
9,ACGGTTCG,-0.0961
10,CTTGATTA,-0.0944
11,CTATATCA,0.095
12,GGTGGACA,-0.207
13,AAATTCGG,0.302
14,ATAGAGTG,-0.0689
15,ACGTTCGA,-0.12
16,AAAATGTA,-0.017
17,ATGACCAG,-0.0699
18,AGATGAAC,0.151
19,CCCGGGGC,0.191
20,ATGTACAC,-0.0534
21,CACGCGGA,0.181
22,GAACCATC,0.0341
23,CCCTGACG,-0.104
24,GCGGATAA,0.224
25,AACTCAGT,-0.146

row,Sequence,PBM E-score
1,GACCAAAA,0.309
2,CCACCCAG,-0.237
3,AACTACAC,0.0662
4,CCGCCAAA,0.14
5,TACACAAA,0.301
6,CCTGTGAA,0.115
7,GCTCTTAA,0.101
8,GGGGTAGA,-0.101
9,GTATGGAA,-0.041
10,GATAGTCA,-0.0754
11,AATAGCTA,0.105
12,ATCTATAA,0.132
13,AAAGCATA,0.0214
14,GGGCTCCA,-0.301
15,CATATTCC,-0.149
16,CAGGTACA,-0.235
17,CTTCGAGC,0.0967
18,AAAATCTC,-0.0791
19,CTGACCAC,-0.0704
20,GCCAAGAC,-0.16
21,ATTCGCCA,0.0246
22,CGGCTCAA,0.314
23,TATTGTAA,-0.0132
24,TCACCTCA,-0.072
25,ATTGGCTG,-0.187

row,Sequence,PBM E-score
1,GGATTCAC,0.0148
2,AGGCCTCC,-0.153
3,GCTAACCA,-0.0625
4,AGCCCTAG,-0.191
5,ATGCTAAT,0.0369
6,CATTAAAA,0.279
7,CGTGATGA,-0.0921
8,GAGCTTAC,-0.114
9,GGAGGCCC,-0.297
10,CGCCGGGC,0.286
11,AAGTCGCT,-0.196
12,ACTTGACG,-0.151
13,ACCCTCTG,-0.169
14,CTTTGCGA,-0.0227
15,AAGGCCTA,-0.159
16,CGTGTTAG,0.0729
17,GCATGTTA,0.103
18,GAAAGGTC,-0.177
19,CATTTACA,-0.0246
20,CGCGCTTA,0.0718
21,CTAGTTTA,-0.0669
22,AGGACGAG,-0.269
23,AAAGTGGA,-0.249
24,ACTCATAT,0.0248
25,GAGAGGCC,-0.0596

# Three entries from above in a different format.
row	Sequence	PBM E-score
1	GGATTCAC	0.0148
2	AGGCCTCC	-0.153
8	GAGCTTAC	-0.114

# (list continues)

row,Sequence,PBM E-score
1,AATTGTGT,-0.062
2,GGTTGATA,0.14
3,AGGAAGTG,-0.102
4,GTACGTGA,-0.0567
5,ATGAAATG,-0.138
6,GCGTCTTA,-0.0802
7,GGCTGAAC,0.0871
8,CCGACACC,-0.0248
9,ACGACGTA,0.0489
10,AACTACCT,0.0254
11,ATACGGTG,-0.049
12,CCGGTAAC,0.259
13,GCGCAACA,-0.034
14,ACGATGCC,-0.123
15,ATCAACAA,0.176
16,ATAAGTTG,0.0611
17,CTAAAGCC,-0.232
18,TTCCCCAA,-0.158
19,ACTATACT,-0.0234
20,CAAGTTAA,0.00911
21,CTGTTCAA,0.0508
22,CACGCTTC,-0.221
23,CCCATTTC,-0.139
24,AAATAGCT,0.0915
25,GTGCGCTA,-0.26

# Retrieved one by one from above:
row,Sequence,PBM E-score
5,ATGAAATG,-0.138
14,ACGATGCC,-0.123

# The results go on:

row,Sequence,PBM E-score
1,AAACGACT,-0.0469
2,CTATCATA,0.162
3,GCCATTTA,-0.101
4,CAGCATCA,-0.0284
5,TATTTTGA,0.0179
6,TCGTCCAA,0.0266
7,CAAAGGCA,0.00969
8,ATGGGAAT,-0.0742
9,GCATGCCA,-0.0785
10,TAGACAAA,-0.0161
11,AATGTTCG,0.0469
12,CCAGGCCA,-0.211
13,ATACTTTA,0.0867
14,ATCTCTAG,-0.118
15,CCGTCCCC,-0.154
16,CTGCATAC,-0.0165
17,CGGTACCC,-0.0697
18,AACTGGCA,0.00917
19,CCGCATGC,0.0227
20,CCCAGCAG,0.0118
21,AACTCAAT,0.0852
22,AACAATGG,0.0443
23,GCGAATAC,-0.0764
24,GTGCCCCA,-0.305
25,AATTTCTA,0.274

row,Sequence,PBM E-score
1,AAACCCGG,0.337
2,TCAGACAA,-0.0221
3,CAGATAAA,0.141
4,GGGCGATA,-0.222
5,AATGGAGT,-0.163
6,ACCTAGCT,-0.277
7,ATGTCCTG,0.0779
8,AAAATCAT,0.219
9,ATTGGATG,0.0431
10,AGGTCTTC,-0.115
11,GATCTTTA,0.106
12,GACCACCA,-0.0215
13,CAGTTGGC,-0.138
14,ACGCGATA,-0.128
15,GGCCATTA,-0.0323
16,CGTGTACC,-0.0823
17,CACATACG,-0.287
18,AATATCGG,0.286
19,GTTGCCAA,-0.035
20,CGGTCTGA,0.208
21,AATCGCAG,-0.0676
22,ATTCTGGA,0.218

# A stretch from further up, for reference:
row,Sequence,PBM E-score
12,GACCACCA,-0.0215
13,CAGTTGGC,-0.138
